Data on 40 molecules can be found in PubChem BioAssay AID445 (National Center for Advancing Translational Sciences (NCATS), 2006).

Some of the results follow. Shown are side measurements of this screen, not its main read-out; they come without a call. Compounds called inactive in the main read-out are mostly missing here. Words in brackets tell the shape of the fitted curve; partial curves, single points and poor fits give uncertain potencies.

As usually defined, the AC50 is the concentration giving half of the maximal activity seen.

The test is described as follows: IkB Signaling. Conditions: ABC-DLBCL IkBa-CBG/CBR dual luciferase ratio (green luciferase fused to IkBa over red control in OCI-Ly3 lymphoma cells), 4 h. Summed up:
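In this assay, an IκBα–CBG68 fusion accumulates when IKK-driven degradation is blocked; native CBR normalizes for cell number. OCI-Ly3 cells were treated 4 h with compound and doxycycline, then green and red light read after Chroma-Glo addition.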

[1] abbreviates: measured here: control luc red channel unless noted.
The mark [2] stands for this setting: measured here: IkB-luc green channel.
Where [3] appears, read: measured here: control luc red channel.

Consider `CCc1c(C)sc2c1CCN(Cc1ccccc1C#N)C2c1ccccc1` (configuration not stated), for which the AC50 under setting [1] is 25.1 µM [falling, single point].

In the case of `CC1CCN(c2oc(-c3cccs3)nc2S(=O)(=O)c2ccccc2)CC1`, the AC50 under setting [1] is 31.6 µM [falling, partial curve].

As to `NCCNS(=O)(=O)c1cccc2cnccc12`, the AC50 under setting [1] is 2.51 µM [falling, partial curve].

On to `COc1ccc(-n2cc(-c3ccc4c(c3)OCO4)n(CC(=O)Nc3cc(Cl)ccc3C)c2=O)cc1`, for which the AC50 was 12.6 µM [rising, partial curve] under setting [2] and 12.6 µM [falling, partial curve] under setting [3].

`Cc1cc(OCC(=O)N2CCC(c3nc4ccccc4s3)CC2)ccc1Cl`: the concentration at half-maximal activity (AC50) under setting [1] was 15.8 µM [falling, partial curve].

`O=C(CSc1ncc(-c2ccccc2)[nH]1)Nc1cccc(Br)c1`: under setting [1], the AC50 was 12.6 µM [falling, partial curve].

For the molecule `O=C(Nc1ccc(F)cc1F)N1CCN(c2ncccn2)CC1`, the AC50 under setting [1] was 10 µM [falling, partial curve].

On to `CCOCCc1nnc(NC(=O)C(=O)c2cc(C)n(-c3ccc(Cl)cc3)c2C)s1`, for which the AC50 under setting [1] is 12.6 µM [falling, partial curve].

For the molecule `Cc1cc2n(n1)CCCN2C(=O)Nc1ccc(F)c(Cl)c1`, under setting [1], the AC50 was 2.51 µM [rising, full curve].

Consider `COc1cccc(NC(=O)c2ccc(CN3CCN(c4ccccc4)CC3)cc2)c1`, for which the AC50 was 15.8 µM [falling, partial curve] under setting [2] and 12.6 µM [falling, partial curve] under setting [3].

With `Cc1ccc(S(=O)(=O)c2cnc(SCC(=O)Nc3ccc4c(c3)OCCO4)[nH]c2=O)cc1C`, the AC50 under setting [1] is 20 µM [falling, partial curve].

For `COc1cc2nc(NC(=O)c3ccc(S(=O)(=O)N4CCc5ccccc54)cc3)sc2cc1OC`, under setting [1], the AC50 was 1.58 µM [falling, full curve].

Turning to `CC1CCCCN1C(=O)c1ccc2c(c1)N(Cc1ccc(F)cc1)C(=O)c1ccccc1S2(=O)=O` (configuration not stated), the AC50 under setting [1] was 12.6 µM [falling, partial curve].

As for `CCN(CCCNC(=O)c1cc2c(=O)n(CC)c3ccccc3c2s1)Cc1ccccc1`, under setting [1], the AC50 is 20 µM [falling, partial curve].

Turning to `CCOC(=O)N1CCN(Cc2nc3cc(NC(=O)c4ccccc4Cl)ccc3n2C(C)C)CC1`, the AC50 under setting [1] is 2.51 µM [rising, partial curve].

On to `C=C(C)COc1ccc(-c2[nH]ncc2Oc2ccccc2OCC)c(O)c1`, for which the half-maximal activity concentration (AC50) under setting [1] was 39.8 µM [falling, single point].

For `O=C(Nc1ccc(S(=O)(=O)N2CCCCCC2)cc1)c1ccc(Br)o1`, the AC50 under setting [1] is 20 µM [falling, partial curve].

Consider `CCOC(=O)c1ccc(NC(=O)N2CC3CCCN3c3ccccc32)cc1` (configuration not stated), for which the AC50 under setting [1] is 31.6 µM [falling, partial curve].

`COc1ccc2nc(NC(=O)C3CCCN(S(=O)(=O)c4cccc5nonc45)C3)sc2c1` (configuration not stated): the AC50 under setting [1] is 2.51 µM [falling, full curve].

As for `Cc1ccc2nc(-c3cccs3)c(Nc3ccc4c(c3)OCCO4)n2c1`, under setting [1], the AC50 was 31.6 µM [falling, single point].

In the case of `O=C(Cn1cc(S(=O)(=O)N2CCCC2)c(S(=O)(=O)N2CCCC2)c1)Nc1ccc(F)cc1`, under setting [1], the AC50 was 3.98 µM [rising, single point].

On to `CC1=CC2=C(OC1N(C)C)c1cccc3cccc(c13)C2=O` (configuration not stated), for which the AC50 under setting [1] is 25.1 µM [falling, partial curve].

On to `CCOC(=O)c1c(NC(=O)CSc2nnc(CNc3ccc(F)cc3)o2)sc(C(C)=O)c1C`, for which the AC50 under setting [1] was 10 µM [falling, partial curve].

For `O=C(Cn1cc(C(=O)c2ccco2)c2ccccc21)Nc1ccccc1`, the AC50 under setting [1] was 12.6 µM [falling, partial curve].

As to `CCOc1ccc(NC(=O)c2ccc(F)c(S(=O)(=O)N(Cc3ccc(C(=O)OC)cc3)Cc3ccc(OC)c(OC)c3)c2)cc1`, under setting [1], the AC50 is 12.6 µM [falling, partial curve].

In the case of `CCOc1cc(C2C(C#N)=C(N)OC(C)=C2C(C)=O)cc(Br)c1O` (configuration not stated), under setting [1], the concentration at half-maximal activity (AC50) was 25.1 µM [falling, partial curve].

`CC1CCc2nc(NC(=O)Cc3cccs3)sc2C1` (configuration not stated): the half-maximal activity concentration (AC50) under setting [1] was 15.8 µM [falling, partial curve].

In the case of `CCc1ccc(NS(=O)(=O)c2ccc3[nH]cc(C(=O)NCc4ccc(C)cc4)c(=O)c3c2)cc1`, under setting [1], the AC50 is 10 µM [falling, partial curve].

Consider `CCOc1ccc(-n2c(=O)c3c4c(sc3n(Cc3cccc(C)c3)c2=O)CCCC4)cc1`, for which the AC50 under setting [1] was 5.01 µM [falling, full curve, poor fit].

`COC(=O)CSc1nc2ccc(NC(C)=O)cc2s1`: the AC50 under setting [1] was 15.8 µM [falling, partial curve].

Take `CCOC(=O)C1CCCN(C(=O)c2cc3c(-c4cccc(OC)c4)nn(C)c3s2)C1` (configuration not stated): under setting [1], the AC50 was 31.6 µM [falling, partial curve].

As for `COc1ccc(OC)c(NC(=O)c2c(NCc3ccc(OC)c(OC)c3)sc3c2CCC3)c1`, under setting [1], the AC50 was 5.01 µM [falling, partial curve].

For the molecule `O=C(Nc1ccc(Br)cc1F)C(NS(=O)(=O)c1cccc2nsnc12)c1ccccc1` (configuration not stated), under setting [1], the half-maximal activity concentration (AC50) was 12.6 µM [falling, partial curve].

`Cc1csc2nc(CSc3ccc(Cl)cc3)cn12`: the AC50 under setting [1] was 12.6 µM [falling, partial curve].

For `COc1ccc(CNC(=O)c2cc3c(-c4ccccc4F)nn(C)c3s2)cc1`, under setting [1], the concentration at half-maximal activity (AC50) was 6.31 µM [falling, partial curve].

On to `COc1ccc2nc3sc(C(=O)NCc4cccs4)c(N)c3cc2c1`, for which, under setting [1], the AC50 was 3.98 µM [falling, partial curve].

With `CC/C(=C(/CC)c1ccc(O)cc1)c1ccc(O)cc1`, the AC50 under setting [1] is 15.8 µM [rising, partial curve] [measured here: IkB-luc green channel].

For the molecule `Cc1nc2ccccc2c2oc(C(=O)NCC3CCCO3)cc12` (configuration not stated), the AC50 under setting [1] is 31.6 µM [falling, partial curve].

For the molecule `CCN(CC)C(=O)c1cnn(-c2ccc(F)cc2)c1-n1cccc1`, the AC50 under setting [1] was 25.1 µM [falling, single point].

Take `Cc1ccc(CNC(=O)c2oc3ccc(S(=O)(=O)N4CCC5(CC4)OCCO5)cc3c2C)cc1`: the AC50 under setting [1] was 3.16 µM [falling, full curve].
